Measured values reported in article PMC12931233.
No constants are given. Whether binding was seen depends on the method and setting. Binding seen in cells or lysates may run through a third protein. Some results given as binding are weak or reduced against the parent protein; the word gives no strength.

Protein sequences, listed by entry. Tags and fused reporters are not part of them. Lines headed by an entry give the natural chain unless they say otherwise; changes in a name come on top. Chains listed by the source or under a name are the forms on record and can include a tag or linker. Residues count along the entry.
shRNA-resistant WT CD47, reconstituted in CD47-depleted MHCC97-H cells (Q08722, residues 19-323): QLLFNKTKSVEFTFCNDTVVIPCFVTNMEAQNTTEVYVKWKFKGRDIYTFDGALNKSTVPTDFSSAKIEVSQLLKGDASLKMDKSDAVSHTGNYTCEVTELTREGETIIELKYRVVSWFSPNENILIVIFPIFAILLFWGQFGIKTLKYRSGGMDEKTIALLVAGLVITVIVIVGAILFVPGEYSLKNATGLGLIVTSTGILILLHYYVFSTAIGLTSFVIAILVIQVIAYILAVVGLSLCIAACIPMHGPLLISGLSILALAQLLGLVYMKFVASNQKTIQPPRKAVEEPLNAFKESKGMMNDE
shRNA-resistant N111Q CD47, reconstituted in CD47-depleted MHCC97-H cells (Q08722, form named): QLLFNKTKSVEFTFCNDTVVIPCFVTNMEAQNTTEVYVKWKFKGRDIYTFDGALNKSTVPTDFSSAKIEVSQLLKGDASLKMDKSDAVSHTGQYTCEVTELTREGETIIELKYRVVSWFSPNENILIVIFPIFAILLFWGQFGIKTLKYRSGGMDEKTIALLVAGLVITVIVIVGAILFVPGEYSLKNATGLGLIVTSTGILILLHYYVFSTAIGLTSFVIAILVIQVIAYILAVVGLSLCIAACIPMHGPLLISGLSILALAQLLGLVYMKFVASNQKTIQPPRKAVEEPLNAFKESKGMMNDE
UniProt Q9HCE7: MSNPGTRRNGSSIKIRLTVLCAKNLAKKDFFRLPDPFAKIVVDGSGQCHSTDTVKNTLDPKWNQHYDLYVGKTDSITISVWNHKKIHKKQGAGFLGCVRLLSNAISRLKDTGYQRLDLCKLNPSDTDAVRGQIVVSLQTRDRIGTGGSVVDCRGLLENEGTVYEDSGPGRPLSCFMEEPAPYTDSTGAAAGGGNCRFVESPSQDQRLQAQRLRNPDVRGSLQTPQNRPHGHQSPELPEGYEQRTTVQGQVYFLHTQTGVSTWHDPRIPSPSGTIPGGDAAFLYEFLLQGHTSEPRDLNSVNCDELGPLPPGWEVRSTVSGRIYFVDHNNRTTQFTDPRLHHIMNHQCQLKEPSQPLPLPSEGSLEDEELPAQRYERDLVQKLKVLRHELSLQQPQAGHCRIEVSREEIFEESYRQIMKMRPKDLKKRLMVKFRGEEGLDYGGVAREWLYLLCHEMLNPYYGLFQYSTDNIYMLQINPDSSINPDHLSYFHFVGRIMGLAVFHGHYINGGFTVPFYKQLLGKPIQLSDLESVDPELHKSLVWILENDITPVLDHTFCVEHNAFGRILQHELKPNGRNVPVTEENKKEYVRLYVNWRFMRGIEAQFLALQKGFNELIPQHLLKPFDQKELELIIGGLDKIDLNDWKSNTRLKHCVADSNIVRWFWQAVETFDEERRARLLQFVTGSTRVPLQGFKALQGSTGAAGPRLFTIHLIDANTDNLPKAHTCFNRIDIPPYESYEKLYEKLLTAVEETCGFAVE

Key:
[1] = target: shRNA-resistant N111Q CD47, reconstituted in CD47-depleted MHCC97-H cells (human) (UniProt Q08722); assay: co-IP; CD47 WT or N111Q reconstituted MHCC97-H cells expressing vector or HA-FUT8, or treated with DMSO or 2F-Fuc; immunoblotting
[2] = target: shRNA-resistant WT CD47, reconstituted in CD47-depleted MHCC97-H cells (human) (UniProt Q08722); assay: as above

Substance: SMURF1, E3 ubiquitin ligase, in MHCC97-H cells (from UniProt Q9HCE7 1-757) (enzyme)
- binding [1]: binds
- binding [2]: binds
